No constants are given. Whether binding was seen depends on the method and setting. In cells and extracts the contact can be indirect. Some results given as binding are weak or reduced against the parent protein; the word gives no strength. Tags and fused reporters may be left off the sequences shown.
Molecular target: T1, Pib1-HA (S. cerevisiae) (UniProt Q06651)
T1 sequence: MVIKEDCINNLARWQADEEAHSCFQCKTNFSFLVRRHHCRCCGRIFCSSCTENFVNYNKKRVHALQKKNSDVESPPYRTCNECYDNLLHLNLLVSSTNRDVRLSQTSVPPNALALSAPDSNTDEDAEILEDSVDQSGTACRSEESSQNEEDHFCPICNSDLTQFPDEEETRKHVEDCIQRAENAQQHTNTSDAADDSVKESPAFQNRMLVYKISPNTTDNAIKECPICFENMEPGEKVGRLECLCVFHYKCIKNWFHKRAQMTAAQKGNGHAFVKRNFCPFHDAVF
Assay: co-IP

- binding: binds
B1: Rds2-FLAG (protein, UniProt P19541 1-446)
chain: MSANSGVKRASKAFKTCLFCKRSHVVCDKQRPCSRCVKRDIAHLCREDDIAVPNEMPSQHESSPNDNNIQGKYANKAHTGIPSDYQNEPVNKSGSTYGEELSPKLDSSLVNDTTSLLLPQQPVFVSENVGSEFSSLNEFLSMLENPLLTQTSLSSSSASNVHLENGSQTTQSPLEYQNDNRRDEIGVARQENRSPTIMSGSSNSISKGDKQDQEKEESRILANANENSAPTPKEQFFLTAADPSTEMTPEHRLKLVINAKLEAGLLKPYNYAKGYARLQDYMDKYMNQSSKQRILKPLSTIRPAFRTIARSLKDVDLVLVEESFERMLLSYDRVFTSMSMPACLCRRTGEIYRANKEFASLVDCTVDDLRDGKLAIYELMTEESAVNFWEKYGSIAFDKGQKAVLTSCSLRTKDGIRKRPCCFSFTIRRDRYNIPICIVGNFIPLS
